Assay results reported in the supplement of paper PMC10849652.
This is one part of the list. Residues, ends and D or L forms follow the SMILES beside them. *: point of attachment. Cbz = O=C(OCc1ccccc1)*

The chains behind the UniProt entries cited, without tags or fusion partners. Where a name states a change or a piece, a line headed by the entry shows the natural chain unless it says otherwise.
UniProt A6NJ78: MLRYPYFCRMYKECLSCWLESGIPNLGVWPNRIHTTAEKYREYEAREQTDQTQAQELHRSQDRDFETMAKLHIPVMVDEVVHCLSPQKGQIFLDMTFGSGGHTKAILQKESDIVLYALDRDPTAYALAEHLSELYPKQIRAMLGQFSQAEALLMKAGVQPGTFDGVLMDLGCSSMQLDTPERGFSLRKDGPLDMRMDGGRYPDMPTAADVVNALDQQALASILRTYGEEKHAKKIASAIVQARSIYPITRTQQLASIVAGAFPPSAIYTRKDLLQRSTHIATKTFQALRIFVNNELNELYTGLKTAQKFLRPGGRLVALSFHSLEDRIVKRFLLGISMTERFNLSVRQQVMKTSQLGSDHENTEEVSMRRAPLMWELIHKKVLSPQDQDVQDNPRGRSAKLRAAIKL
UniProt Q9NX70: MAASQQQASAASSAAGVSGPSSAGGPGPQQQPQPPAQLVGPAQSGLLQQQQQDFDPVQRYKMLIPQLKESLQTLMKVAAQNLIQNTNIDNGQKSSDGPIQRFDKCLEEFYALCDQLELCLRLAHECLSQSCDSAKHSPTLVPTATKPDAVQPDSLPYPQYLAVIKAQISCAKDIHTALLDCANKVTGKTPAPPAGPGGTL
UniProt Q9NWA0: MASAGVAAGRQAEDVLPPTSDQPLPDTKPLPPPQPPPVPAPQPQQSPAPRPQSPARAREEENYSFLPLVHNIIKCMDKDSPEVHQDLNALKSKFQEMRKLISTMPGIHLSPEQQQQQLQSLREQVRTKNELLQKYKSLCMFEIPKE
UniProt Q6ZN04: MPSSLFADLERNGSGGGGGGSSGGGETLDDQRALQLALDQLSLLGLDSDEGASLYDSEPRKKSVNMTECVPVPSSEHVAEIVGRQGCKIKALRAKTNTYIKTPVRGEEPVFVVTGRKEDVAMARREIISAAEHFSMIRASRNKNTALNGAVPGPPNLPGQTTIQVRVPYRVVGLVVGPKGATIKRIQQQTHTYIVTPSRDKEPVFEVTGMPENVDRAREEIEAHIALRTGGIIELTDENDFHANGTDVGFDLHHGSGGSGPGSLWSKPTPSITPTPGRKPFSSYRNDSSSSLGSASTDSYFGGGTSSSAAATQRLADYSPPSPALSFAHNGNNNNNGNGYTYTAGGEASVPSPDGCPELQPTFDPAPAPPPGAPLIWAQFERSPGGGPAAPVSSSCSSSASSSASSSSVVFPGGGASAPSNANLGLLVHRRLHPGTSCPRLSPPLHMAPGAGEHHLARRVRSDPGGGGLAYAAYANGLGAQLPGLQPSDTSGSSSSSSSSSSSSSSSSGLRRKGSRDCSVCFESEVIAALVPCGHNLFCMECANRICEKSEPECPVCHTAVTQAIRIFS
UniProt P42679: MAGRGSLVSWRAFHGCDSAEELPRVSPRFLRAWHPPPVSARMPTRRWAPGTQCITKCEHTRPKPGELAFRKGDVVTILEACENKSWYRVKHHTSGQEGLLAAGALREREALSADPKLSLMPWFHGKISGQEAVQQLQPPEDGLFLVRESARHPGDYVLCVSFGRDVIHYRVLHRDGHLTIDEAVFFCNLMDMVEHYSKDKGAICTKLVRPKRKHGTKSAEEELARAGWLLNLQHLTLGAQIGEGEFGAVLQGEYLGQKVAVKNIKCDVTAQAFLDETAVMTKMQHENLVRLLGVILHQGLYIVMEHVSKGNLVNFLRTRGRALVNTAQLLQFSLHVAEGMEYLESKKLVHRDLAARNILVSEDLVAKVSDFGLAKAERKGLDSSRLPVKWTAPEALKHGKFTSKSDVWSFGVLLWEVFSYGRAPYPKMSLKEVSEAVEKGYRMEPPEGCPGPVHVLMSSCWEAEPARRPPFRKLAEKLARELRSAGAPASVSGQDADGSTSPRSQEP
UniProt P55082: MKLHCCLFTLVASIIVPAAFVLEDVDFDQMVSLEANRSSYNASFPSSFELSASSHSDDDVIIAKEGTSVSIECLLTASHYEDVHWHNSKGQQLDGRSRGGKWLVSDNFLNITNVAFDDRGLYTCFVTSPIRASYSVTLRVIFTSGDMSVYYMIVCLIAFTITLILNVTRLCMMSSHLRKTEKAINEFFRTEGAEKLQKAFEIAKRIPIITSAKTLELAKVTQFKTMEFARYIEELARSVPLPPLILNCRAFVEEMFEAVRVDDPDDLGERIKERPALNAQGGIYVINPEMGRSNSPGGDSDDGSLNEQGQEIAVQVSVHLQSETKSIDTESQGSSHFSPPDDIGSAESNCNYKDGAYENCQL
UniProt Q6P1Q9: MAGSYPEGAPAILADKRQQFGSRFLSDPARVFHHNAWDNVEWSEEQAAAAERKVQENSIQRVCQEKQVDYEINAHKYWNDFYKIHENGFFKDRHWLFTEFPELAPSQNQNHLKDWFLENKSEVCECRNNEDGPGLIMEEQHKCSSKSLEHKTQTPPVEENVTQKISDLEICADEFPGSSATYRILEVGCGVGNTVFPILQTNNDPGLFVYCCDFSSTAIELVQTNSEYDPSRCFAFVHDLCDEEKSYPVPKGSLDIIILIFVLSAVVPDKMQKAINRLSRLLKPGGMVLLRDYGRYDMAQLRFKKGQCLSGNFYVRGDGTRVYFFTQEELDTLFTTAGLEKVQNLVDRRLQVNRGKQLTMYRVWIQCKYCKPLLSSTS
UniProt Q9H7H0: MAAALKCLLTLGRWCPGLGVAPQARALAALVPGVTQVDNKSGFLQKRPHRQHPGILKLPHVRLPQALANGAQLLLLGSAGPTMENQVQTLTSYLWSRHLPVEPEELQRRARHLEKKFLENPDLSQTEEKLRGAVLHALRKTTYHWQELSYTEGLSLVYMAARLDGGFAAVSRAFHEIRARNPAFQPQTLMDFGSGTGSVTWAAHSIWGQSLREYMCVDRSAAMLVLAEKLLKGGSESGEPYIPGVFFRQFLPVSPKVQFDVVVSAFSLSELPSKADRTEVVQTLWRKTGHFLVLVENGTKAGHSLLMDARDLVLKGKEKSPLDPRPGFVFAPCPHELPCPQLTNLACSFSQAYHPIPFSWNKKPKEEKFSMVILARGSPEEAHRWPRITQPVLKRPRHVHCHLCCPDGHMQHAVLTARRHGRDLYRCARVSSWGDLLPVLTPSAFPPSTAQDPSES
UniProt Q9NR56: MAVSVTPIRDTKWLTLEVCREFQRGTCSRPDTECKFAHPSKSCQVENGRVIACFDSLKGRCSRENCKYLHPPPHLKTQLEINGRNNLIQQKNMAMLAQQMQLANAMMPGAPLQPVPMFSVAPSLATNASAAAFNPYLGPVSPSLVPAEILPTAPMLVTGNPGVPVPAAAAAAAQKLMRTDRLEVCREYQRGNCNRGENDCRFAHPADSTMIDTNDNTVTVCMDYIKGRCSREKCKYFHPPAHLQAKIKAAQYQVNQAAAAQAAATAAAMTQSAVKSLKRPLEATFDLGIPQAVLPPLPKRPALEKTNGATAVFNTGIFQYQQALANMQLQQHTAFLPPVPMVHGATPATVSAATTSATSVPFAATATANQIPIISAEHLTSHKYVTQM
MCTS2P, A0A3B3IRV3, UniProt A0A3B3IRV3, whole entry, looked up: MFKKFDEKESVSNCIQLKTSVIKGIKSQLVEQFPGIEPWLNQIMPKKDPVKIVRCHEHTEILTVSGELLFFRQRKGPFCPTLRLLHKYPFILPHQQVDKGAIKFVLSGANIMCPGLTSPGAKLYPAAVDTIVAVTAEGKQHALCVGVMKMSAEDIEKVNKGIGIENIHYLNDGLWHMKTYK
UniProt Q7L590: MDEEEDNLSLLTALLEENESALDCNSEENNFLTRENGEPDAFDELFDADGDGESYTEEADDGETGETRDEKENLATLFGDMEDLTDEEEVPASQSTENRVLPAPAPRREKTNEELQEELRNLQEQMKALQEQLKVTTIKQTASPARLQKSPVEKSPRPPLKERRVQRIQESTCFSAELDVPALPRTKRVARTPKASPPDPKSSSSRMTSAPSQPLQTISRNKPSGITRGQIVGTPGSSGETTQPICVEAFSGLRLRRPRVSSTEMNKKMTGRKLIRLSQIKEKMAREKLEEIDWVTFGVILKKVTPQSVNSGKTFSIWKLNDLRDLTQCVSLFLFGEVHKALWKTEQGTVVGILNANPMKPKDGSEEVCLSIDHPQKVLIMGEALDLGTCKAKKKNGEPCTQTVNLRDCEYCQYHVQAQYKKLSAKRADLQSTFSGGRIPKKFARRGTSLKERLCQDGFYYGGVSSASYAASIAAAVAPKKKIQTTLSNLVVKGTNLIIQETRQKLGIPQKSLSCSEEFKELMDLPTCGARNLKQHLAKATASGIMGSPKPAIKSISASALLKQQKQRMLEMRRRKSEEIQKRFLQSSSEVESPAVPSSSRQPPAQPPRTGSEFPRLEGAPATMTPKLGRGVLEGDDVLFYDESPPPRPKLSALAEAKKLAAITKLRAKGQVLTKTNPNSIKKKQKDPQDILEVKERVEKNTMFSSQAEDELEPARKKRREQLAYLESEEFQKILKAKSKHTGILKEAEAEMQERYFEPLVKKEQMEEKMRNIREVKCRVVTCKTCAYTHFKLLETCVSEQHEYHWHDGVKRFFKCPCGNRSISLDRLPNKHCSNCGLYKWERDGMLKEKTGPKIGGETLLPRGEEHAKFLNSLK
UniProt Q02078: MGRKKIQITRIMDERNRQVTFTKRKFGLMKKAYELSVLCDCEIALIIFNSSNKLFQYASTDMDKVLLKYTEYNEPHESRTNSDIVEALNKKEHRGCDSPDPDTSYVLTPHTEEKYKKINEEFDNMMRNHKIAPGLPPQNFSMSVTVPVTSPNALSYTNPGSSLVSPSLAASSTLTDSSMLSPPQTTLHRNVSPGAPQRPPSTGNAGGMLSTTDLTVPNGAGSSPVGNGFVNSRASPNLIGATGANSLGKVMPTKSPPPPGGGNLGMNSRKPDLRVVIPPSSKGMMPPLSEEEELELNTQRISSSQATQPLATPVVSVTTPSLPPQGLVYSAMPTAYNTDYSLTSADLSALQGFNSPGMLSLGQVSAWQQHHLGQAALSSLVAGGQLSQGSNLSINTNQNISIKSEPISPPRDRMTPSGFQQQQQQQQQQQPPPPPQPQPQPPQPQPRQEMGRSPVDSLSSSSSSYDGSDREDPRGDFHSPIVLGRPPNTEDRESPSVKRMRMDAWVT
UniProt Q8NBP5: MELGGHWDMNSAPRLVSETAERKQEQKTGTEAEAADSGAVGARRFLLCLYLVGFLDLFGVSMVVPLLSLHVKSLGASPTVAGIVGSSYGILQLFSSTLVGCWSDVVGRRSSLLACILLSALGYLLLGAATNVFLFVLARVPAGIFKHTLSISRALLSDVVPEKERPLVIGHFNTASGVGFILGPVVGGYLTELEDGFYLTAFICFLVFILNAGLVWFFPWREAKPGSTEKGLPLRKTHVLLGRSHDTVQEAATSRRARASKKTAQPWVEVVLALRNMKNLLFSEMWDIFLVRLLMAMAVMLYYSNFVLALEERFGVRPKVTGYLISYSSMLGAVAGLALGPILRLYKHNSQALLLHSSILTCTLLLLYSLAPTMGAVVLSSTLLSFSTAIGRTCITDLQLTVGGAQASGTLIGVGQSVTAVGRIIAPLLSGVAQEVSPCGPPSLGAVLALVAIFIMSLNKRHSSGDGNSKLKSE
UniProt Q5U5Q3: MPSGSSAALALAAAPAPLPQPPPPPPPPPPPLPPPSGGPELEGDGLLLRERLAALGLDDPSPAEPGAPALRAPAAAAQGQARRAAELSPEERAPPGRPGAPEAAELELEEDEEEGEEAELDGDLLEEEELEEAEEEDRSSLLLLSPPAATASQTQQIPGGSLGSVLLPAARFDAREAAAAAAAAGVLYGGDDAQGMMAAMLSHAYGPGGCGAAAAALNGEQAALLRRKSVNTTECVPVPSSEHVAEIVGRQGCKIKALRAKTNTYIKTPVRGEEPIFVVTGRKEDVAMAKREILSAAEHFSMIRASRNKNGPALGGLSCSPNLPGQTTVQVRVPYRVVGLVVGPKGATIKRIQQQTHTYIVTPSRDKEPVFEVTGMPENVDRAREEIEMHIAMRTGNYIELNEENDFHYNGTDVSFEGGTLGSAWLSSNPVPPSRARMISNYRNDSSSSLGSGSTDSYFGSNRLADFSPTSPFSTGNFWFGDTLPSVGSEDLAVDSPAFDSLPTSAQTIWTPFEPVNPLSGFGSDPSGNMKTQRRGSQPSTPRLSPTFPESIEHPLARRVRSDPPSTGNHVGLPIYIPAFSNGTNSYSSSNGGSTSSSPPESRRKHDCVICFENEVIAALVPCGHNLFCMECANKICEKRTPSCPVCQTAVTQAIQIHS
UniProt O43934: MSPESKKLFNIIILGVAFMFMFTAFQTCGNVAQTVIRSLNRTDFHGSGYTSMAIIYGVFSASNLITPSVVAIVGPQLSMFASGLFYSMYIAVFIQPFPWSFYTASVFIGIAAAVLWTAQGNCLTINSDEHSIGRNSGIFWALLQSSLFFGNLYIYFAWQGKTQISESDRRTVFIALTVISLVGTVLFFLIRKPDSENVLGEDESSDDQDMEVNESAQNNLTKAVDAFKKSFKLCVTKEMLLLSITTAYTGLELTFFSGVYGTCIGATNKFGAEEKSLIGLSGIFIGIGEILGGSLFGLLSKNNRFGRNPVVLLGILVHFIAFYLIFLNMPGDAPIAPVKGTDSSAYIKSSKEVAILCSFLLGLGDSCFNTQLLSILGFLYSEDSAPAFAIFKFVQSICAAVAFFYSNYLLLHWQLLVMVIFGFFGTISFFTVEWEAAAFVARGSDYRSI

Columns and labels:
Assay in all cases: log2 fold change, soluble protein after heating vs DMSO (PISA); higher = thermal stabilisation; K562 cells, 10 uM, 30 min; active = over 0.2 and 3.5 SD of the protein, either way, in both replicates (recomputed)
[1] = compound: C/C(=N\NC(=O)C1=CC(=CC=C1)S(=O)(=O)N2CCOCC2)/C3=C(C=CC(=C3)Cl)O
Outline: (§1)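 Thermal stability values are relative to control samples and come from duplicates. They are expressed as log2 fold changes. For measurement, K562 cells (2×10^6 cells/mL) received 10 μM compound for 30 min, and aliquots were heated for 3 min over 48°C-58°C, pooled, and extracted at 4°C in PBS with 0.5% NP-40. Soluble protein, the supernatant after 21,000xg for 90 min, was quantified by TMTpro 16plex LC-MS/MS with equalised channel sums.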

[2] = compound: C1=CC2=C(C=CC(=C2)/C=C\3/C(=O)NC(=NCC4=CC=CS4)S3)N=C1
Outline: as §1

[3] = compound: C1=CC=C2C(=C1)C3=NNC4=CC=CC(=C43)C2=O
Outline: as §1

[4] = compound: C1CCN(C1)C(=O)NC2=CC=CC(=C2)NC3=NC=C(C(=N3)NCCC4=CN=CN4)Br
Outline: as §1

[5] = compound: C1CN(CCC1(CC2=CC=C(C=C2)Cl)N)C3=NC=NC4=C3C=CN4
Outline: as §1

IRAK-1-4 Inhibitor I = compound: C1COCCN1CCN2C3=CC=CC=C3N=C2NC(=O)C4=CC(=CC=C4)[N+](=O)[O-] [IRAK-1-4 Inhibitor I]
Outline: as §1

[6] = compound: CC(=O)c1cnc2ccc(-c3cc(Cl)c(O)c(Cl)c3)nc2c1N[C@H]1CC[C@H](CN(C)C)CC1
Outline: as §1

pinometostat = compound: CC(C)N(C[C@H]1O[C@@H](n2cnc3c(N)ncnc32)[C@H](O)[C@@H]1O)[C@H]1C[C@@H](CCc2nc3cc(C(C)(C)C)ccc3[nH]2)C1 [pinometostat]
Outline: as §1

[7] = compound: CC1=C(C(CC(=O)N1)C2=CC=C(C=C2)C(F)(F)F)C(=O)NC3=C(C=C4C(=C3)C=NN4)F
Outline: as §1

[8] = compound: CC1=C(C2=C(C=C1)C(=O)C3=CC=CC=C3N2CCCN)C
Outline: as §1

[9] = compound: C1=CC(=C(C=C1Cl)C2=NC3=NC=CN=C3C(=N2)NC4=CC=NC=C4)F
Outline: as §1

[10] = compound: C1=CC2=NC=CN=C2C=C1/C=C/3\C(=O)NC(=O)S3
Outline: as §1

ibrutinib = compound: C=CC(=O)N1CCC[C@@H](n2nc(-c3ccc(Oc4ccccc4)cc3)c3c(N)ncnc32)C1 [ibrutinib]
Outline: as §1

[11] = compound: CC(C)(O)CC(=O)NCCn1ccc2ncnc(Nc3ccc(Oc4cccc(C(F)(F)F)c4)c(Cl)c3)c21
Outline: as §1

erlotinib = compound: C#Cc1cccc(Nc2ncnc3cc(OCCOC)c(OCCOC)cc23)c1 [erlotinib]
Outline: as §1

[12] = compound: C1=CC(=CC=C1C2=NC3=C(N2)C=C(C=C3)C(=O)N)OC4=CC=C(C=C4)Cl
Outline: as §1

[13] = compound: CC(C)C1=C2N=C(C=C(N2N=C1)NCC3=CC=CC=C3)NCCCCCCN
Outline: as §1

[14] = compound: C1=CC=C(C=C1)C2=NC(=C(N2)C3=CC=NC=C3)C4=CC(=C(C=C4)Cl)O
Outline: as §1

ralimetinib = compound: CC(C)(C)Cn1c(N)nc2ccc(-c3[nH]c(C(C)(C)C)nc3-c3ccc(F)cc3)nc21 [ralimetinib]
Outline: as §1

[15] = compound: CC(C)C[C@@H](C=O)NC(=O)[C@H](CC(C)C)NC(=O)[C@H](CC(C)C)NC(=O)OCc1ccccc1
Outline: as §1

Measured: log2 fold change

MEGF8 (UniProt Q7Z7M0)
inactive: [1] 0.024 | [2] 0.171 | [3] 0.001 | [4] 0.108 | [5] 0 | IRAK-1-4 Inhibitor I 0.037 | [6] -0.332 | pinometostat -0.12 | [7] 0.003 | [8] 0.532

METTL15 (UniProt A6NJ78)
inactive: [1] 0.305 | [9] 0.124 | [2] 0.178 | [10] 0.012 | [3] -0.048 | [4] -0.194 | [5] -0.091 | ibrutinib 0.049 | [6] -0.1 | [11] -0.636 | [8] 0.203

MED29 (UniProt Q9NX70)
inactive: erlotinib -0.016 | [1] 0.008 | [12] 0.062 | [2] -0.089 | [3] -0.015 | [6] -0.215 | [13] -0.038

MEGF9 (UniProt Q9H1U4)
inactive: erlotinib -0.104 | [12] 0.045 | [10] -0.219 | [4] -0.159 | [5] -0.091 | ibrutinib 0.113 | [13] 0.243 | [8] 0.043

MED9 (UniProt Q9NWA0)
inactive: [14] 0.145 | IRAK-1-4 Inhibitor I -0.027 | ralimetinib -0.06 | [15] -0.028 | pinometostat 0.008 | [7] 0.033

MEX3B (UniProt Q6ZN04)
inactive: erlotinib 0.052 | [12] 0.061 | [10] 0.09 | [14] 0.163 | [4] 0.099 | [5] -0.267 | ibrutinib 0.046 | ralimetinib -0.072 | [13] 0.076 | [15] 0.251 | [7] 0.06 | [8] 0.118

MEF2C isoform 2 (UniProt Q06413)
inactive: [9] 0.085 | [4] -0.07 | [5] 0.096 | [11] -0.141 | [8] 0.033

MATK isoform 2 (UniProt P42679)
inactive: [7] -0.131

MAU2 (UniProt Q9Y6X3)
inactive: erlotinib 0.113 | [12] -0.011 | [14] 0.048 | [4] -0.085 | [5] 0.039 | ralimetinib -0.052 | [13] -0.264 | [15] -0.12 | [8] 0.126

MFSD4B (UniProt Q5TF39)
inactive: [1] -0.033 | [9] 0.089 | [2] -0.04 | [10] 0.078 | [14] 0.186 | [3] 0.032 | [4] -0.06 | [5] 0.095 | IRAK-1-4 Inhibitor I 0.078 | ibrutinib -0.004 | [6] 0.005 | ralimetinib -0.064 | [11] 0.008 | [15] -0.014 | pinometostat -0.016 | [7] 0.002 | [8] -0.019

MED21 (UniProt Q13503)
inactive: [1] -0.006 | [2] 0.155 | [14] 0.129 | [3] 0.059 | [4] -0.18 | [5] 0.09 | [6] -0.046 | ralimetinib -0.023 | [15] -0.272 | [7] -0.003 | [8] 0.194

METTL26 (UniProt Q96S19)
inactive: erlotinib 0.181 | [12] -0.097 | [10] -0.273 | ibrutinib -0.081 | [13] 0.067 | [7] -0.192

MFAP3 (UniProt P55082)
inactive: [1] 0.202 | [9] -0.021 | [2] 0.029 | [10] -0.106 | [3] -0.142 | [4] -0.088 | [5] 0.064 | ibrutinib -0.027 | [6] -0.067 | [11] -0.165 | [8] -0.111

MCRIP2 (UniProt Q9BUT9)
inactive: erlotinib 0.015 | [9] 0.113 | [12] 0.043 | [10] 0.022 | [14] 0.066 | [4] -0.456 | [5] -0.069 | IRAK-1-4 Inhibitor I 0.079 | ibrutinib -0.084 | ralimetinib -0.037 | [11] -0.11 | [13] -0.062 | [15] 0.069 | pinometostat 0.008 | [8] 0.538

METTL2B (UniProt Q6P1Q9)
inactive: [1] 0.133 | [9] -0.113 | [2] 0.022 | [14] 0.073 | [3] -0.065 | IRAK-1-4 Inhibitor I -0.134 | [6] -0.073 | ralimetinib 0.189 | [11] -0.091 | [15] 0.216 | pinometostat 0.291

METTL17 isoform 3 (UniProt Q9H7H0)
inactive: [1] -0.052 | [2] 0.021 | [14] -0.138 | [3] 0.066 | [6] 0.007 | ralimetinib 0.124 | [15] 0.025

MED13 (UniProt Q9UHV7)
inactive: [1] 0.03 | [9] -0.015 | [2] 0.003 | [10] -0.045 | [14] 0.009 | [3] -0.032 | [4] -0.109 | [5] 0.037 | IRAK-1-4 Inhibitor I -0.011 | ibrutinib 0.05 | [6] -0.256 | ralimetinib -0.027 | [11] 0.059 | [15] 0.036 | pinometostat -0.043 | [7] 0.021 | [8] -0.201

Two successive entries from above, quoted:
MEX3B (UniProt Q6ZN04)
inactive: erlotinib 0.052 | [12] 0.061 | [10] 0.09 | [14] 0.163 | [4] 0.099 | [5] -0.267 | ibrutinib 0.046 | ralimetinib -0.072 | [13] 0.076 | [15] 0.251 | [7] 0.06 | [8] 0.118

MEF2C isoform 2 (UniProt Q06413)
inactive: [9] 0.085 | [4] -0.07 | [5] 0.096 | [11] -0.141 | [8] 0.033

Carrying on:

MFHAS1 (UniProt Q9Y4C4)
inactive: [1] -0.43 | [2] 0.17 | [10] -0.036 | [14] -0.102 | [3] 0.008 | [4] 0.139 | [5] 0.136 | IRAK-1-4 Inhibitor I -0.103 | ibrutinib 0.207 | [6] 0.074 | ralimetinib 0.124 | [15] -0.072 | pinometostat -0.033 | [8] 0.135

MBNL1 isoform 5 (UniProt Q9NR56)
inactive: [9] 0.033 | [10] -0.103 | [14] -0.001 | [4] -0.181 | [5] 0.191 | IRAK-1-4 Inhibitor I 0.015 | ibrutinib 0.169 | ralimetinib 0.105 | [11] -0.091 | [15] 0 | pinometostat -0.008 | [7] -0.103 | [8] 0.116

MCTS2P, A0A3B3IRV3
inactive: [7] 0.021

MCM10 (UniProt Q7L590)
inactive: erlotinib -0.066 | [9] 0.205 | [12] 0.039 | [10] -0.054 | [4] -0.153 | [5] 0.125 | IRAK-1-4 Inhibitor I 0.096 | ibrutinib 0.018 | [11] -0.115 | [13] 0.015 | pinometostat -0.108 | [8] -0.037

MEF2A (UniProt Q02078)
inactive: erlotinib 0.03 | [9] -0.136 | [12] 0.04 | [4] -0.004 | [5] 0.071 | [11] -0.072 | [13] 0.043 | [7] -0.057 | [8] 0.005

MED13L (UniProt Q71F56)
inactive: erlotinib -0.071 | [9] -0.03 | [12] 0.018 | [11] -0.052 | [13] -0.046

MED19 (UniProt A0JLT2)
inactive: [9] -0.185 | [10] 0.05 | [14] -0.052 | IRAK-1-4 Inhibitor I 0.164 | ibrutinib 0.049 | ralimetinib 0.135 | [11] 0.028 | [15] 0.095 | pinometostat -0.209 | [7] -0.062

MFSD9 (UniProt Q8NBP5)
inactive: erlotinib -0.171 | [12] 0.024 | [13] 0.089 | [7] 0.022

MEF2A isoform 2 (UniProt Q02078)
inactive: IRAK-1-4 Inhibitor I -0.004 | pinometostat -0.031 | [7] 0.141

MEX3C (UniProt Q5U5Q3)
inactive: [14] -0.006 | ralimetinib 0.081 | [15] 0.015

MFSD11 (UniProt O43934)
inactive: [1] 0.001 | [9] 0.007 | [2] 0.047 | [10] 0.043 | [3] -0.067 | [4] 0.06 | [5] 0.219 | IRAK-1-4 Inhibitor I 0.015 | ibrutinib 0.006 | [6] -0.029 | [11] -0.008 | pinometostat -0.009 | [8] 0.095

MBTPS2 (UniProt O43462)
inactive: erlotinib 0.057 | [9] -0.205 | [12] -0.03 | [14] -0.097 | [4] -0.053 | [5] 0.043 | IRAK-1-4 Inhibitor I -0.166 | ralimetinib -0.049 | [11] 0.034 | [13] -0.037 | [15] 0.073 | pinometostat 0.047 | [7] 0 | [8] 0.065
